Experimental data reported in ChEMBL document CHEMBL5360532, “Current scenario of quinolone hybrids with potential antibacterial activity against ESKAPE pathogens” (Eur J Med Chem, 2023).

Legend:
[1] = test system: HeLa; assay: Anticancer activity against human HeLa cells assessed as cell growth inhibition; format: functional, cell-based
[2] = test system: MCF7; assay: Anticancer activity against human MCF7 cell assessed as cell growth inhibition measured after 24 to 72 hrs by MTT assay; format: functional, cell-based

IC50 [1]: 19.3 µM | IC50 [2]: 0.259 µM
Compound: COc1cccc2c1C(=O)c1c(O)c3c(c(O)c1C2=O)C[C@@](O)(C(=O)CO)C[C@@H]3O[C@H]1C[C@H](N)[C@H](O)[C@H](C)O1 [DOXORUBICIN]
